Results are given in words; binding and its absence hold for the method and conditions named. Binding seen in cells or lysates may run through a third protein. Some binding calls cover weakened binding; strength is not graded here.
Target: cyclin E1 (human (endogenous in U2OS and 143B)) (UniProt P24864)
Assay: co-IP; whole-cell lysate of U2OS and 143B cells incubated with cyclin E1 antibody (1:50) overnight at 4°C, protein A/G agarose beads 1.5 h at 4°C; Western blot for ELA2, calpain 1 and calpain 2

The chains behind the UniProt entries cited, without tags or fusion partners. Residues count along the entry.
UniProt P24864: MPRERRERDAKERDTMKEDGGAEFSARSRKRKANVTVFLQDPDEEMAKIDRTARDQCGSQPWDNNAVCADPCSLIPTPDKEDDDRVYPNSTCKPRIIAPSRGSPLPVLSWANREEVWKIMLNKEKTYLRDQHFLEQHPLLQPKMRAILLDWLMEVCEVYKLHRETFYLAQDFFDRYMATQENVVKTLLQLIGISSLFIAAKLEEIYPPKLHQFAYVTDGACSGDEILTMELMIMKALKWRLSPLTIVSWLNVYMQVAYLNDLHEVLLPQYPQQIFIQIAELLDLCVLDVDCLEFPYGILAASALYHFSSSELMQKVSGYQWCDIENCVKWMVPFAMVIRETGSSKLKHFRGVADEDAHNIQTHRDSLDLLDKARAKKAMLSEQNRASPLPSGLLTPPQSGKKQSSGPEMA
UniProt P08246, residues 30-267: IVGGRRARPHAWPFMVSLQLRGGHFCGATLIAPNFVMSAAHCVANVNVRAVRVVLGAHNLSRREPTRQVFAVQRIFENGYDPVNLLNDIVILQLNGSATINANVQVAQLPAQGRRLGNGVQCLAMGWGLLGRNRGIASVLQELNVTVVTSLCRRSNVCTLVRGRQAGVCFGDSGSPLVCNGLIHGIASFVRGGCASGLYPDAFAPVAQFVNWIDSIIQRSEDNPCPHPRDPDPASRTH

- binding: binds
Substance: neutrophil elastase (from UniProt P08246 30-267) (enzyme)

From article PMC12434046
